# In the supplement of paper PMC9135407:
# Where “and” joins values, the source holds several entries; their conditions need not be identical. Equal values may be shown once. Where a name gives a salt, the structure may show the parent alone. ± gives the standard deviation of the averaged measurements. The list shows a part of the results. Baselines shift from plate to plate; read single values as rough.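 Assay uses culture-activated primary human stellate myofibroblasts; lipid droplet recovery indicates inactivation. Measured: proportion of Hoechst-counted cells over a plate-specific Bodipy cutoff, duplicate wells, DMSO and nortriptyline as per-plate negative and positive controls. A hit scores, control-normalized, above the plate's top-tenth-percentile nortriptyline wells or ranks among its three best wells. Final well concentrations not reported.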
# Test system: primary human hepatic stellate cells (donor 1)
# Experiment: percent Bodipy-positive cells; higher = more lipid droplet accumulation
# Settings: 48 h
# [1] = library stock concentration: 3.33 mM
# [2] = library stock concentration: 80 uM
# [3] = library stock concentration: 400 uM
# [4] = library stock concentration: 2 mM
# [5] = library stock concentration: 10 mM
# [6] = library stock concentration: 1 mM
structure (smiles),measurement,setting,value
N#CC(c1ccnc(NCCc2cccnc2)n1)c1nc2ccccc2s1 (stereo unspecified) [JNK Inhibitor V],percent Bodipy-positive cells,[1],47.7 ± 14%
O=C(NC(NC(=S)Nc1ccc(F)c([N+](=O)[O-])c1)C(Cl)(Cl)Cl)C(c1ccccc1)c1ccccc1 (stereo unspecified),percent Bodipy-positive cells,[2],8.75 ± 1.7%
same,percent Bodipy-positive cells,[3],11.7 ± 0.81%
same,percent Bodipy-positive cells,[4],8.51 ± 1.4%
same,percent Bodipy-positive cells,[1],27.3 ± 4.1%
Cn1cc(C2=C(c3ccc(Cl)cc3Cl)C(=O)NC2=O)c2ccccc21,percent Bodipy-positive cells,[2],26 ± 10%
same,percent Bodipy-positive cells,[4],36.2 ± 4.9%
same,percent Bodipy-positive cells,[1],53.1 ± 12%
same,percent Bodipy-positive cells,[5],55.3 ± 1.5%
CN(N=O)C(=O)N[C@@H](C=O)[C@@H](O)[C@H](O)[C@H](O)CO [Streptozocin],percent Bodipy-positive cells,[5],9.61 ± 2.1%
CN(N=O)C(=O)N[C@@H](C=O)[C@@H](O)[C@H](O)[C@H](O)CO [Streptozotocin],percent Bodipy-positive cells,,7.03 ± 2.7%
CC#CCOC(=O)c1c(C)nc2sc3c(c2c1N)CCC(O)C3 (stereo unspecified),percent Bodipy-positive cells,[5],90.7 ± 3.2%
CCCCCCCCCCCCCCCC(=O)N[C@H]1CCOC1=O [N-hexadecanoyl-L-Homoserine lactone],percent Bodipy-positive cells,[6],15.9 ± 12%
Cc1ccc(C(=O)Nc2ccc(S(=O)(=O)O)c3cc(S(=O)(=O)O)cc(S(=O)(=O)O)c23)cc1NC(=O)c1cccc(NC(=O)Nc2cccc(C(=O)Nc3cc(C(=O)Nc4ccc(S(=O)(=O)O)c5cc(S(=O)(=O)O)cc(S(=O)(=O)O)c45)ccc3C)c2)c1 [Suramin sodium salt],percent Bodipy-positive cells,[5],6.91 ± 4.8%
Cc1ccc(C(=O)Nc2ccc(S(=O)(=O)O)c3cc(S(=O)(=O)O)cc(S(=O)(=O)O)c23)cc1NC(=O)c1cccc(NC(=O)Nc2cccc(C(=O)Nc3cc(C(=O)Nc4ccc(S(=O)(=O)O)c5cc(S(=O)(=O)O)cc(S(=O)(=O)O)c45)ccc3C)c2)c1 [Suramin hexasodium salt],percent Bodipy-positive cells,[5],2.32 ± 1.7%
Cc1ccc(C(=O)Nc2ccc(S(=O)(=O)O)c3cc(S(=O)(=O)O)cc(S(=O)(=O)O)c23)cc1NC(=O)c1cccc(NC(=O)Nc2cccc(C(=O)Nc3cc(C(=O)Nc4ccc(S(=O)(=O)O)c5cc(S(=O)(=O)O)cc(S(=O)(=O)O)c45)ccc3C)c2)c1 [Suramin],percent Bodipy-positive cells,library stock concentration: 1.4 mM,4.3 ± 1.5%
CCC(=O)[C@@]1(C)[C@H](C)C[C@H]2[C@@H]3CCC4=CC(=O)C=C[C@]4(C)[C@H]3[C@@H](O)C[C@@]21C [Rimexolone],percent Bodipy-positive cells,,7.87 ± 1.8%
CC(=O)Nc1ccc(S(=O)(=O)Nc2ccc([N+](=O)[O-])cc2)cc1 [Sulfanitran],percent Bodipy-positive cells,library stock concentration: 6 mM,8.69 ± 1.2%
same,percent Bodipy-positive cells,[5],25 ± 1.1%
CCc1cc(C(N)=S)ccn1,percent Bodipy-positive cells,[5],25.1 ± 2.1%
CCc1cc(C(N)=S)ccn1 [Ethionamide],percent Bodipy-positive cells,,25.5 ± 11%
same,percent Bodipy-positive cells,[1],10.4 ± 1.1%
same,percent Bodipy-positive cells,[5],12.4% and 10.4%
same,percent Bodipy-positive cells,library stock concentration: 12 mM,4.6 ± 0.13%
"O=C1C=CC(=O)c2c1ccc1c2ccc2ccccc21 [Chrysene-1,4-quinone]",percent Bodipy-positive cells,,87.9 ± 2.9%
CN(Cc1ccccc1)C(=O)[C@H](Cc1ccc2ccccc2c1)NC(=O)[C@@H]1C[C@@H](O)CN1C(=O)c1cn(C)c2ccccc12,percent Bodipy-positive cells,[5],10.1 ± 1.4%
NC(=O)c1ncn([C@@H]2O[C@H](CO)[C@@H](O)[C@H]2O)c1O [Mizoribine],percent Bodipy-positive cells,[5],31.2 ± 8.3%
Cc1cn([C@@H]2C[C@@H](O)[C@H](CO)O2)c(=O)[nH]c1=O [Telbivudine],percent Bodipy-positive cells,[1],8.09 ± 2.1%
same,percent Bodipy-positive cells,[5],14.4 ± 1.7%
CN1CCN(C(c2ccccc2)c2ccc(Cl)cc2)CC1 (stereo unspecified) [Chlorcyclizine hydrochloride],percent Bodipy-positive cells,,48.9 ± 12%
same,percent Bodipy-positive cells,library stock concentration: 5.9 mM,25.2 ± 1.4%
CCOc1cc2ncc(C#N)c(Nc3ccc(OCc4ccccn4)c(Cl)c3)c2cc1NC(=O)/C=C/CN(C)C,percent Bodipy-positive cells,[2],6.46 ± 5.2%
same,percent Bodipy-positive cells,[3],7.47 ± 1.5%
same,percent Bodipy-positive cells,[4],25 ± 7.1%
same,percent Bodipy-positive cells,[5],20.9 ± 7.7%
Cc1cccc(Nc2cc(Cl)nc(SCC(=O)O)n2)c1C,percent Bodipy-positive cells,[6],7.74% and 22.3%
same,percent Bodipy-positive cells,[1],31.5 ± 5.9%
CCCCC[C@@H](O)/C=C/[C@H]1[C@H](C/C=C\CCCC(=O)O)C(=O)C[C@@H]1O [ent-Prostaglandin E2],percent Bodipy-positive cells,[6],7.2 ± 0.78%
"Nc1ncnc2c1ncn2[C@@H]1O[C@H](COP(=O)(O)CP(=O)(O)OP(=O)(O)O)[C@H](O)C1O (stereo partly drawn) [alpha,beta-Methylene adenosine 5'-triphosphate dilithium]",percent Bodipy-positive cells,[5],16.6 ± 4.2%
O=C(N/N=C/c1ccc([N+](=O)[O-])o1)c1ccc(O)cc1 [Nifuroxazide],percent Bodipy-positive cells,,26.9 ± 5%
same,percent Bodipy-positive cells,[1],24.7 ± 9.1%
same,percent Bodipy-positive cells,[5],61.6 ± 7%
C[C@@H]1CN(c2c(F)c(N)c3c(=O)c(C(=O)O)cn(C4CC4)c3c2F)C[C@H](C)N1 [Sparfloxacin],percent Bodipy-positive cells,[1],4.72 ± 1.7%
same,percent Bodipy-positive cells,library stock concentration: 5.1 mM,8.13 ± 0.86%
same,percent Bodipy-positive cells,[5],7.29 ± 2.4%
Cn1c(=O)c2[nH]c(-c3ccc(S(=O)(=O)O)cc3)nc2n(C)c1=O [8-(p-Sulfophenyl)theophylline],percent Bodipy-positive cells,[5],35.7 ± 11%
C[C@@H]1O[C@@H]1P(=O)(O)O [Phosphomycin disodium],percent Bodipy-positive cells,[5],29.2 ± 1.2%
C[C@@H]1O[C@@H]1P(=O)(O)O [Fosfomycin],percent Bodipy-positive cells,[5],25.5 ± 12%
Cc1ccc(S(=O)(=O)NCl)cc1,percent Bodipy-positive cells,[5],29.7 ± 9.3%
O[C@H]1[C@H](O)[C@@H](O)[C@@H]2O[C@@H]2[C@@H]1O (racemic) [Conduritol b epoxide],percent Bodipy-positive cells,library stock concentration: 12.3 mM,10.9 ± 5.5%
CC[C@@H]1Cn2c(c3nc(-c4ccccc4)nc-3n(C)c2=O)N1,percent Bodipy-positive cells,[5],5.34 ± 1.2%

# Three consecutive records already listed, quoted:
structure (smiles),measurement,setting,value
CCOc1cc2ncc(C#N)c(Nc3ccc(OCc4ccccn4)c(Cl)c3)c2cc1NC(=O)/C=C/CN(C)C,percent Bodipy-positive cells,[4],25 ± 7.1%
same,percent Bodipy-positive cells,[5],20.9 ± 7.7%
Cc1cccc(Nc2cc(Cl)nc(SCC(=O)O)n2)c1C,percent Bodipy-positive cells,[6],7.74% and 22.3%
